Measured values taken from the supplement of paper PMC11006884.
The entries are a selection whose mix differs from that of the whole data set.

Sequences of proteins named here, by UniProt entry; tags and fusion partners are left off. A change or cut given only in a name is not applied to a line headed by its entry.
UniProt P52888, whole entry, looked up: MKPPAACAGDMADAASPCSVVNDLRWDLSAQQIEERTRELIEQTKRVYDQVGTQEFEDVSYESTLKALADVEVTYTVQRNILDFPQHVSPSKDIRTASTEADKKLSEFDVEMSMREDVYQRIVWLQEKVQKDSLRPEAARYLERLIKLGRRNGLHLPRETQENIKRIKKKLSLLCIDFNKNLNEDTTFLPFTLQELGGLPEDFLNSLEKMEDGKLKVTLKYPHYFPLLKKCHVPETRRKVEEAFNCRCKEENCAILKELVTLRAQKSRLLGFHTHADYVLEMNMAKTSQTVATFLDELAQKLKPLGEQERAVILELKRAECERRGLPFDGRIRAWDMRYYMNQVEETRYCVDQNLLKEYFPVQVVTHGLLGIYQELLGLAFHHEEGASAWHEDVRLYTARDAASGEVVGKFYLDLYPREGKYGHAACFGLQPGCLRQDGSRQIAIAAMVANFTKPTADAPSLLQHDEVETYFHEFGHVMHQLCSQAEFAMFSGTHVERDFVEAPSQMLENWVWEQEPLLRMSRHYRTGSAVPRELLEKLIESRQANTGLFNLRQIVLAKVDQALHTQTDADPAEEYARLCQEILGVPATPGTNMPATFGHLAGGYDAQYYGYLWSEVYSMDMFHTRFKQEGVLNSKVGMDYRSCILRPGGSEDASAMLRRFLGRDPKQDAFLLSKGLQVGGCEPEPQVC
UniProt P55265: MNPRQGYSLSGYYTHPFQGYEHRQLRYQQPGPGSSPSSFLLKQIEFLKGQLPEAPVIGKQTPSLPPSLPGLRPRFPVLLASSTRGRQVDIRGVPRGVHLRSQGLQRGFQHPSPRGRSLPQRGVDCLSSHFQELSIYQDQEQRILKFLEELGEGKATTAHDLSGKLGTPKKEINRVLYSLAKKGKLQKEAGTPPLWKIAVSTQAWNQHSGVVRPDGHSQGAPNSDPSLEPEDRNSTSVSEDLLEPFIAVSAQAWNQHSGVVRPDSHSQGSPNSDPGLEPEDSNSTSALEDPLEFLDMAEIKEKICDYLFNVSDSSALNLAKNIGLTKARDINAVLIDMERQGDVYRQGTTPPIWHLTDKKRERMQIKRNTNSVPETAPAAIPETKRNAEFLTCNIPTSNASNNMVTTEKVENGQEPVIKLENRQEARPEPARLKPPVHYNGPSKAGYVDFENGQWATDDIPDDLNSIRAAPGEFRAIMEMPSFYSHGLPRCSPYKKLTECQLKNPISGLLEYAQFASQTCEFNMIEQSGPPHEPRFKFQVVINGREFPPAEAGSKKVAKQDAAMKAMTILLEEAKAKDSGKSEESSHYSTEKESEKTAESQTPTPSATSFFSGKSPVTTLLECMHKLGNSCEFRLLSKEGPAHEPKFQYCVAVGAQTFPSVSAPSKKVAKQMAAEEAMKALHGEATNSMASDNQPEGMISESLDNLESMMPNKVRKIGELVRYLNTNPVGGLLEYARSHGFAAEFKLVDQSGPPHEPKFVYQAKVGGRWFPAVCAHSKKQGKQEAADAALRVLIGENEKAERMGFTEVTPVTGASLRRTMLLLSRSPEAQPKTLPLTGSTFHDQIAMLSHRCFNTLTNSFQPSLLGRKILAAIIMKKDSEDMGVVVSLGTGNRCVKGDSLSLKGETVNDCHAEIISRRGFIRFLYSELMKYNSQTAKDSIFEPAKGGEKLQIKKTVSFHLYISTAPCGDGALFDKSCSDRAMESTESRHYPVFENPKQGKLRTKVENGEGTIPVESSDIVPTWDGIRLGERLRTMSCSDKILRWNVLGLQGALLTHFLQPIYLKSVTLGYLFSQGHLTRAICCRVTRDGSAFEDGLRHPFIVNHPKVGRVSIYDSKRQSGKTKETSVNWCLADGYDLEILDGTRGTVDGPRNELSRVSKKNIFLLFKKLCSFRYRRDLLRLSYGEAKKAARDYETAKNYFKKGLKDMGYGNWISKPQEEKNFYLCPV
UniProt P55795: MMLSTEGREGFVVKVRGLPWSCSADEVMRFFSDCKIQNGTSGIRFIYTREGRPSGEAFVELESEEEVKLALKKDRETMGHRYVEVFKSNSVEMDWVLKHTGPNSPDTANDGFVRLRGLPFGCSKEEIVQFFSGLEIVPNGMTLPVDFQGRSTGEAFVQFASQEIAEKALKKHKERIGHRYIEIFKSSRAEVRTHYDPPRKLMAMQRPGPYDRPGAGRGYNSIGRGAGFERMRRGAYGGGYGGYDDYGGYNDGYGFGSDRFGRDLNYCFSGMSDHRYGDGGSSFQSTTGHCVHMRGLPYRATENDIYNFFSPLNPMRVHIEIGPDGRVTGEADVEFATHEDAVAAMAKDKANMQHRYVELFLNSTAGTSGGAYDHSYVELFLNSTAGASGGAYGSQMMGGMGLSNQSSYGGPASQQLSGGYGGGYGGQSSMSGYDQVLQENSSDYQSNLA
UniProt P55084: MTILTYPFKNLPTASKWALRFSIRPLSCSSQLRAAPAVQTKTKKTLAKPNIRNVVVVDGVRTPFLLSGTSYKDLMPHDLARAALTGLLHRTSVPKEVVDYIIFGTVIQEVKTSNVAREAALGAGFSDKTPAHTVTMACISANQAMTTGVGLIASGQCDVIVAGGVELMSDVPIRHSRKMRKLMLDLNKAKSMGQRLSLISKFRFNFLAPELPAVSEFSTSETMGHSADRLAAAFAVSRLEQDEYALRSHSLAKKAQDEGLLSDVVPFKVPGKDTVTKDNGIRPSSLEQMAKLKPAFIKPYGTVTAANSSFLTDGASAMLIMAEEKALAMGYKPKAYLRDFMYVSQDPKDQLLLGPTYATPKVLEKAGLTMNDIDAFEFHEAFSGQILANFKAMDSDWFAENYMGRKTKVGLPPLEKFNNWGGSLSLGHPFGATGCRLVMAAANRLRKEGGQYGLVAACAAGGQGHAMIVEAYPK
UniProt P52597: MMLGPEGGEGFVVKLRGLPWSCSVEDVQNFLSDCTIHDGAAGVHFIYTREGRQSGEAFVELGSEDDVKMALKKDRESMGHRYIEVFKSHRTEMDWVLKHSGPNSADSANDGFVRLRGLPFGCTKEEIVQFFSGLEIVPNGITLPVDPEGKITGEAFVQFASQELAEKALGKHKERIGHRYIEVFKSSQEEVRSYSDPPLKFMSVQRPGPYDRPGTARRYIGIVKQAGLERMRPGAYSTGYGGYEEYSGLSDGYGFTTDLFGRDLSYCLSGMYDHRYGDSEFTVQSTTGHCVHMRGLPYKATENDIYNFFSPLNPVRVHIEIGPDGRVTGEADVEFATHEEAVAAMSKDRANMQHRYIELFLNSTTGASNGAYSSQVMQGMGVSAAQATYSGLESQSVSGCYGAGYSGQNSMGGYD
UniProt P60174, whole entry, looked up: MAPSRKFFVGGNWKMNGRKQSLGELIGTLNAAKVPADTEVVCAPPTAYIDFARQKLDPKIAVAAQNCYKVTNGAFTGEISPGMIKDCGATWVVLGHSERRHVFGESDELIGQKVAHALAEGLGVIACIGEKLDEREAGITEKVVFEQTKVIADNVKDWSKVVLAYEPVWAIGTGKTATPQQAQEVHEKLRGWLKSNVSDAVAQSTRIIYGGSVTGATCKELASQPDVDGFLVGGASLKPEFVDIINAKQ
UniProt P52272: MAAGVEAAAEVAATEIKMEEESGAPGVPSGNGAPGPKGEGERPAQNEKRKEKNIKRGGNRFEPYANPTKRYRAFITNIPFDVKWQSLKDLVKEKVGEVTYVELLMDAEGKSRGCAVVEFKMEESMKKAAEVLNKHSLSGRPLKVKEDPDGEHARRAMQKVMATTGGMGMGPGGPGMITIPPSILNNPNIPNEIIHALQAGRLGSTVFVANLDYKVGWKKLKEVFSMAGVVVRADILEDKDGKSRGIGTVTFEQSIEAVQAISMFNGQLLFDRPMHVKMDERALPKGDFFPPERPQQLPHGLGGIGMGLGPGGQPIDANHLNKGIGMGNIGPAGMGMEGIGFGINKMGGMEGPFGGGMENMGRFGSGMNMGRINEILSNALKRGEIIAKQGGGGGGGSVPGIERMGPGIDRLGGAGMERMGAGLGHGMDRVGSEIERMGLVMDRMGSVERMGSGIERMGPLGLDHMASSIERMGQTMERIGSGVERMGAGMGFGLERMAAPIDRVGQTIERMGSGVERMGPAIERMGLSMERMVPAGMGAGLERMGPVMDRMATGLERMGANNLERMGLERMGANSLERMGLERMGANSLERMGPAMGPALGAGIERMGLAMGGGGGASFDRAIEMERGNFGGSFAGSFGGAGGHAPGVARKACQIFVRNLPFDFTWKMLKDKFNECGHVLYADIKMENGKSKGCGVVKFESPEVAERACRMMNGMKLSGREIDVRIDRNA
UniProt P60981: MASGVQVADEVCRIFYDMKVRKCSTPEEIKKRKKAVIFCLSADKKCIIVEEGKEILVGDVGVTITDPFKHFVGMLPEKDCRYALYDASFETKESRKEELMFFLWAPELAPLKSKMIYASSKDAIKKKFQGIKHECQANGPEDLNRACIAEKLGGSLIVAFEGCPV
UniProt P53634: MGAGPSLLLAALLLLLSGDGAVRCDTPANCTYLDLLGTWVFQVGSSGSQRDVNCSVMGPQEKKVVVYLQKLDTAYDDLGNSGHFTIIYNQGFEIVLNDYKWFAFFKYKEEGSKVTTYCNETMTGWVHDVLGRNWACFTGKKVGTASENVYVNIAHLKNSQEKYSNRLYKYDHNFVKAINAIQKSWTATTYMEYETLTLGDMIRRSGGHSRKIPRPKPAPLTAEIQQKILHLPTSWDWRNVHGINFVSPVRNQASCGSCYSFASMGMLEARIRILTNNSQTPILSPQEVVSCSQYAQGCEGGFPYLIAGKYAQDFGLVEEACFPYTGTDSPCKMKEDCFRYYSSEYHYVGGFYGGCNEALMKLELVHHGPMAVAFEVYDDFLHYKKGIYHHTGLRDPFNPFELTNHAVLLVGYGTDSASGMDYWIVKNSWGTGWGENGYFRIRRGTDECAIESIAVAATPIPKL
UniProt P60891: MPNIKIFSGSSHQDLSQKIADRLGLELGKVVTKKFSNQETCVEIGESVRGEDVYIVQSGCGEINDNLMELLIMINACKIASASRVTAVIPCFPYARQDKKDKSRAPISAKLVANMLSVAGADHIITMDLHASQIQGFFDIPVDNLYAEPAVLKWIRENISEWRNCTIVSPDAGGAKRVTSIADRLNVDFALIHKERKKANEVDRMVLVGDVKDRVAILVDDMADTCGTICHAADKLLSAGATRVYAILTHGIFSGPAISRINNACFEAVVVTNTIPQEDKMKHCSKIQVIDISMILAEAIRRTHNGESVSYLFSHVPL
UniProt P51991: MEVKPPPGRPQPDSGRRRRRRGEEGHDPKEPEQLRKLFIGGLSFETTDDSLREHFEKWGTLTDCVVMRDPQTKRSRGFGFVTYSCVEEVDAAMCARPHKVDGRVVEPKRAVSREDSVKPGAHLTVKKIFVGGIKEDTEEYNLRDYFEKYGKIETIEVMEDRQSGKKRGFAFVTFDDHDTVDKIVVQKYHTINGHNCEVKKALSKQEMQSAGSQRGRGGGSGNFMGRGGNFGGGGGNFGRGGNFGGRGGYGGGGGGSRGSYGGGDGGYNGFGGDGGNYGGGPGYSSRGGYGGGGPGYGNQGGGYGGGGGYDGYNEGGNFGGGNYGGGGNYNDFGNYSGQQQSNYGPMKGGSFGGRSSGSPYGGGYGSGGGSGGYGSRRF
UniProt P52789: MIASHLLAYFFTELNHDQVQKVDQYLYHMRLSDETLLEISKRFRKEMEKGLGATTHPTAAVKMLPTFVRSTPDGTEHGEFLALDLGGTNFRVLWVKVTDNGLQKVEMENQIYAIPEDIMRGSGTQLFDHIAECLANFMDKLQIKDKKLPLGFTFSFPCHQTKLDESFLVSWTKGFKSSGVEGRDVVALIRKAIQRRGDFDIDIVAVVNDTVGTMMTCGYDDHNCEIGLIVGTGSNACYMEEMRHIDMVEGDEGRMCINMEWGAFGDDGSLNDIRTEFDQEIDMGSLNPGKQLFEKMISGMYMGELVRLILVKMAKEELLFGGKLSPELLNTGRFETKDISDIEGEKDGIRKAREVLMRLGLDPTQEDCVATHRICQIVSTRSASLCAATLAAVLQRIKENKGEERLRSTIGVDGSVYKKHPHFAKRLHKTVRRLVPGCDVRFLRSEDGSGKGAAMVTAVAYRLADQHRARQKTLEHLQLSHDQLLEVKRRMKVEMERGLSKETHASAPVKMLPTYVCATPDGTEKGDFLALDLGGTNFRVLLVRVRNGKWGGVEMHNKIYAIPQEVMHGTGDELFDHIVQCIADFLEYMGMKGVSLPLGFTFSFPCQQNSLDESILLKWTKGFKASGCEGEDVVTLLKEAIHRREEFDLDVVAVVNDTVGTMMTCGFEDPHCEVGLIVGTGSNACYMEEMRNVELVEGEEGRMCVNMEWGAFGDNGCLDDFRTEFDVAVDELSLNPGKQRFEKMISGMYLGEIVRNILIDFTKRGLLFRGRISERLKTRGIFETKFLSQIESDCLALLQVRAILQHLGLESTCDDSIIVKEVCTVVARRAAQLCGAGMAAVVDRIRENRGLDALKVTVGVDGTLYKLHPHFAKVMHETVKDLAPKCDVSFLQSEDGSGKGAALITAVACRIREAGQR

Compound: COC(=O)C#Cc1ccccc1 [methyl 3-phenylpropiolate]
Assay: log2 ratio of iodoacetamide-alkyne labeling of the cysteine site, DMSO over compound (competition); higher = stronger covalent engagement of the cysteine by the compound, active = 1 or more
Settings: 500 µM; treatment time 1 h; system: HEK293T cell lysate
How it was run: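 Reporter intensities give each cysteine's log2 competition ratio as the mean of control channels over the mean of compound channels. The samples were HEK293T lysate (2 mg/mL) given vehicle or electrophile (500 µM, 1 h, ambient temperature), then iodoacetamide alkyne (1 h), followed by click coupling to sCIP-TMT reagents, pooling, trypsin digestion overnight at 37 °C, streptavidin enrichment, acid elution, Orbitrap Eclipse LC-MS/MS with FAIMS and FragPipe quantification. Duplicate channels and three replicates were run, and cysteines quantified in only one replicate were discarded.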

Target	log2 ratio of iodoacetamide-alkyne labeling
KIF11 C819 (UniProt P52732)	inactive: 0.437
GMFB C8 (UniProt P60983)	inactive: 0.156
THOP1 C682 (UniProt P52888)	inactive: 0.174
PSMD7 C116 (UniProt P51665)	inactive: 0.00567
ADAR C649 (UniProt P55265)	inactive: 0.375
UniProt P62258_C97	inactive: -0.063
UniProt P55072_C535	inactive: 0.087
HNRNPH2 C22 (UniProt P55795)	inactive: -0.259
MSH6 C108 (UniProt P52701)	inactive: 0.0472
KPNA2 C223 (UniProt P52292)	inactive: 0.209
UniProt P55072_C691	inactive: 0.0155
HADHB C458 (UniProt P55084)	inactive: 0.492
UniProt P62241_C174	inactive: -0.238
MVD C386 (UniProt P53602)	inactive: 0.153
EIF3B C384 (UniProt P55884)	inactive: 0.187
RPS3A C201 (UniProt P61247)	inactive: 0.0769
KIF11 C911 (UniProt P52732)	inactive: -0.00949
ADAR C125 (UniProt P55265)	inactive: 0.62
HNRNPF C122 (UniProt P52597)	inactive: 0.157

Target	log2 ratio of iodoacetamide-alkyne labeling
KPNA1 C469 (UniProt P52294)	inactive: 0.678
TPI1 C124 (UniProt P60174)	inactive: -0.216
HNRNPM C694 (UniProt P52272)	inactive: 0.0717
DSTN C135 (UniProt P60981)	inactive: 0.0319
NUBP1 C22 (UniProt P53384)	active: 2.24
CTSC C258 (UniProt P53634)	inactive: -0.0449
UniProt P52564_C196	inactive: 0.274
DSTN C147 (UniProt P60981)	inactive: 0.211
UniProt P60891_C226	inactive: 0.257
UniProt P61221_C201	inactive: 0.034
HNRNPA3 C64 (UniProt P51991)	inactive: 0.03
HADHB C435 (UniProt P55084)	inactive: 0.735
COPB1 C888 (UniProt P53618)	inactive: 0.31
HK2 C794 (UniProt P52789)	inactive: 0.311
UniProt P60709_C17	inactive: 0.0458
UniProt P60763_C178	inactive: -0.0321
KPNA2 C272 (UniProt P52292)	inactive: 0.0583
HSD17B4 C535 (UniProt P51659)	inactive: -0.0514
